Data taken from PubChem BioAssay AID1963991, deposited by NCATS (2024).

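Viability of UOK109 TFE3-fusion renal carcinoma cells after 48 h of compound exposure, read as ATP luminescence with CellTiter-Glo. Each compound was run as a concentration series, and the potency comes from that titration. The number is the fitted AC50 for loss of viability; a lower value means a more potent compound. All of these compounds are filed inconclusive. An active call needs an area-under-curve z-score below -0.8 in all three TFE3-fusion lines, and an inactive call needs flat class-4 curves in all three.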

Values are in nM. Every entry below has the call inconclusive. Only part of the assay is shown, chiefly results filed as inconclusive. Potencies fitted to partial, single-point or poorly fitting curves are rough. Some entries filed as inconclusive have a full curve. Activity scores are not listed here.

| # | structure | condition | potency (nM) | curve |
|---|---|---|---|---|
| 1 | `N#Cc1ccc(COC[C@H]2O[C@@H](n3c(NCc4ccc(Cl)c(Cl)c4)nc4c(N)ncnc43)[C@@H](O)[C@@H]2O)cc1` | active = Z-AUC below -0.8 in all three lines | 20930 | falling, partial curve |
| 2 | `CC(C)(C)NC(=O)[C@H]1CN(Cc2cccnc2)CCN1C[C@@H](O)C[C@@H](Cc1ccccc1)C(=O)N[C@H]1c2ccccc2C[C@H]1O` | active = Z-AUC below -0.8 in all three lines | 1.049 | - |
| 3 | `CC(C)(O)CC(=O)NCCn1ccc2ncnc(Nc3ccc(Oc4cccc(C(F)(F)F)c4)c(Cl)c3)c21` | active = Z-AUC below -0.8 in all three lines | 234.9 | falling, full curve |
| 4 | `NC(=O)c1cccc(N)c1` | active = Z-AUC below -0.8 in all three lines | 4686 | falling, full curve |
| 5 | `Nc1ccc(C(=O)Nc2cccc(-c3nc(N4CCOCC4)c4oc5ncccc5c4n3)c2)cn1` | active = Z-AUC below -0.8 in all three lines | 1663 | falling, full curve |
| 6 | `NC(N)=NC(N)=NCCc1ccccc1` | active = Z-AUC below -0.8 in all three lines | 2348 | falling, partial curve |
| 7 | `CC(C)CN(C[C@H](O)[C@H](Cc1ccccc1)NC(=O)O[C@H]1CCOC1)S(=O)(=O)c1ccc(N)cc1` | active = Z-AUC below -0.8 in all three lines | 20930 | falling, partial curve, poor fit |
| 8 | `CCOC(=O)c1c(C)n(C)c2ccc(O)cc12` | active = Z-AUC below -0.8 in all three lines | 23484 | - |
| 9 | `NC(=O)c1noc([C@H](CCCC2CCCCC2)CC(=O)NO)n1` | active = Z-AUC below -0.8 in all three lines | 3317 | falling, full curve |
| 10 | `C[C@H]1[C@@H](OC(=O)CCC(=O)O)O[C@@H]2O[C@@]3(C)CC[C@@H]4[C@H](C)CC[C@@H]1[C@@]24OO3` | active = Z-AUC below -0.8 in all three lines | 18654 | falling, partial curve |
| 11 | `CCn1c(-c2nonc2N)nc2cncc(CNC3CCNCC3)c21` | active = Z-AUC below -0.8 in all three lines | 23484 | falling, single point |
| 12 | `Cc1sc2c(c1C)C(c1ccc(Cl)cc1)=N[C@@H](CC(=O)OC(C)(C)C)c1nnc(C)n1-2` | - | 1663 | falling, partial curve |
| 13 | `C[C@@H]1CC[C@@]2(OC1)O[C@H]1C[C@H]3[C@@H]4CC=C5C[C@@H](O[C@@H]6O[C@H](CO)[C@@H](O[C@@H]7O[C@@H](C)[C@H](O)[C@@H](O)[C@@H]7O)[C@H](O)[C@@H]6O[C@@H]6O[C@@H](C)[C@H](O)[C@@H](O)[C@@H]6O)CC[C@]5(C)[C@@H]4CC[C@]3(C)[C@@H]1[C@H]2C` | - | 9350 | falling, full curve |
| 14 | `Cc1ccc(C(N)=O)cc1Nc1nccc(-c2cn(C(C)C)c3cnccc23)n1` | active = Z-AUC below -0.8 in all three lines | 7427 | falling, full curve |
| 15 | `O=C(C=Cc1cccc(S(=O)(=O)Nc2ccccc2)c1)NO` | active = Z-AUC below -0.8 in all three lines | 3820 | falling, full curve |
| 16 | `OC1CCC(Nc2ncc3nc(Nc4c(F)cc(F)cc4F)n([C@@H]4CCOC4)c3n2)CC1` (stereo partly drawn) | active = Z-AUC below -0.8 in all three lines | 13206 | falling, partial curve |
| 17 | `CCN1CCN(Cc2ccc(-c3cc4c(N[C@H](C)c5ccccc5)ncnc4[nH]3)cc2)CC1` | active = Z-AUC below -0.8 in all three lines | 331.7 | falling, partial curve |
| 18 | `COc1cc(F)c(C(C)C)cc1-c1ccc(C(F)(F)F)cc1CN1C(=O)O[C@H](c2cc(C(F)(F)F)cc(C(F)(F)F)c2)[C@@H]1C` | active = Z-AUC below -0.8 in all three lines | 4686 | - |
| 19 | `COc1cccc2c1C(=O)c1c(O)c3c(c(O)c1C2=O)C[C@@](O)(C(=O)CO)C[C@H]3O[C@H]1C[C@H](N)[C@H](O)[C@H](C)O1` | active = Z-AUC below -0.8 in all three lines | 468.6 | falling, full curve |
| 20 | `CCCCCCCCc1ccc(CCC(N)(CO)CO)cc1` | active = Z-AUC below -0.8 in all three lines | 23484 | falling, partial curve |
| 21 | `C[C@@]1(c2cc(-c3cncnc3)c(F)cc2F)CCSC(N)=N1` | active = Z-AUC below -0.8 in all three lines | 5899 | falling, partial curve |

3 of the entries, repeated:

| structure | condition | potency (nM) | curve |
|---|---|---|---|
| `Nc1ccc(C(=O)Nc2cccc(-c3nc(N4CCOCC4)c4oc5ncccc5c4n3)c2)cn1` | active = Z-AUC below -0.8 in all three lines | 1663 | falling, full curve |
| `Cc1ccc(C(N)=O)cc1Nc1nccc(-c2cn(C(C)C)c3cnccc23)n1` | active = Z-AUC below -0.8 in all three lines | 7427 | falling, full curve |
| `C[C@H]1[C@@H](OC(=O)CCC(=O)O)O[C@@H]2O[C@@]3(C)CC[C@@H]4[C@H](C)CC[C@@H]1[C@@]24OO3` | active = Z-AUC below -0.8 in all three lines | 18654 | falling, partial curve |